# Some of the results follow. Only a few entries rise above the background.
# B1: 4-99.4 (protein)
# chain 1: QVQLQESGPGLVKPSETLSLTCAVSGYSISSAYFWGWIRQPPGKGLEYIGYISGEGGKSYYNPSLMSRVTISKDTSKNQFSLKLNTVTAADTAVYYCARRAILVGFDLWGQGVLVTVSS
# chain 2: QAAPTQPPSVSGSPGQSVTISCTGSNSDIGYYNAVSWYQQHPGKAPKLMIYEVSKRPSGVSDRLTGSKSGNTASLTISGLQAEDEADYYCSSYAGSNTYIFGTGTRLTVL
# How the values were obtained:
# Assay in all cases: fluorescence intensity of antibody binding to polysaccharide-coupled beads; higher = stronger binding
# [1] = biological target: pneumococcal polysaccharide Pn44
# Description: (§1)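 Recombinant rhesus-murine chimeric IgG1 antibodies were tested against antigen-coupled MagPlex beads in a 96-plex Luminex direct immunoassay (dLIA). The beads carried pneumococcal capsular polysaccharides of 93 serotypes plus C-polysaccharides. Antibody was added at 0.1–12,500 ng/mL for 1 h, then PE anti-mouse IgG, and net MFI was read on a Bio-Plex 3D. Only the rhesus variable regions are printed; constant regions are murine IgG1/kappa/lambda, and the signal peptide is MGWSCIILFLVATATGVHS.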
# [2] = biological target: pneumococcal polysaccharide Pn45
# Description: as §1
# [3] = biological target: pneumococcal polysaccharide Pn46
# Description: as §1
# [4] = biological target: pneumococcal polysaccharide Pn47A
# Description: as §1
# [5] = biological target: pneumococcal polysaccharide Pn47F
# Description: as §1
# [6] = biological target: pneumococcal polysaccharide Pn48
# Description: as §1
# [7] = biological target: pneumococcal polysaccharide Pn5
# Description: as §1
# [8] = biological target: pneumococcal polysaccharide Pn6A
# Description: as §1
# [9] = biological target: pneumococcal polysaccharide Pn6B
# Description: as §1
# [10] = biological target: pneumococcal polysaccharide Pn6C
# Description: as §1
# [11] = biological target: pneumococcal polysaccharide Pn6D
# Description: as §1
# [12] = biological target: pneumococcal polysaccharide Pn7A
# Description: as §1
# [13] = biological target: pneumococcal polysaccharide Pn7B
# Description: as §1
# [14] = biological target: pneumococcal polysaccharide Pn7C
# Description: as §1
# [15] = biological target: pneumococcal polysaccharide Pn7F
# Description: as §1
# [16] = biological target: pneumococcal polysaccharide Pn8
# Description: as §1
# [17] = biological target: pneumococcal polysaccharide Pn9A
# Description: as §1
# [18] = biological target: pneumococcal polysaccharide Pn9L
# Description: as §1
# [19] = biological target: pneumococcal polysaccharide Pn9N
# Description: as §1
# [20] = biological target: pneumococcal polysaccharide Pn9V
# Description: as §1
# [21] = antibody concentration 0.1 ng/mL
# [22] = antibody concentration 0.534724 ng/mL
# [23] = antibody concentration 2.8593 ng/mL
# [24] = antibody concentration 15.2894 ng/mL
# [25] = antibody concentration 81.7561 ng/mL
# [26] = antibody concentration 437.17 ng/mL
# [27] = antibody concentration 2337.65 ng/mL
# [28] = antibody concentration 12500 ng/mL
binder,measurement,setting,value
B1,fluorescence intensity,[1]; [21],25 MFI
same,fluorescence intensity,[1]; [22],26.5 MFI
same,fluorescence intensity,[1]; [23],26 MFI
same,fluorescence intensity,[1]; [24],25 MFI
same,fluorescence intensity,[1]; [25],26 MFI
same,fluorescence intensity,[1]; [26],25.5 MFI
same,fluorescence intensity,[1]; [27],26.5 MFI
same,fluorescence intensity,[1]; [28],35 MFI
same,fluorescence intensity,[2]; [21],12.5 MFI
same,fluorescence intensity,[2]; [22],11 MFI
same,fluorescence intensity,[2]; [23],12 MFI
same,fluorescence intensity,[2]; [24],11 MFI
same,fluorescence intensity,[2]; [25],11.5 MFI
same,fluorescence intensity,[2]; [26],12.2 MFI
same,fluorescence intensity,[2]; [27],13 MFI
same,fluorescence intensity,[2]; [28],19 MFI
same,fluorescence intensity,[3]; [21],23.5 MFI
same,fluorescence intensity,[3]; [22],24.5 MFI
same,fluorescence intensity,[3]; [23],25.5 MFI
same,fluorescence intensity,[3]; [24],24.5 MFI
same,fluorescence intensity,[3]; [25],24.5 MFI
same,fluorescence intensity,[3]; [26],24.2 MFI
same,fluorescence intensity,[3]; [27],27 MFI
same,fluorescence intensity,[3]; [28],57.5 MFI
same,fluorescence intensity,[4]; [21],16 MFI
same,fluorescence intensity,[4]; [22],17 MFI
same,fluorescence intensity,[4]; [23],16.5 MFI
same,fluorescence intensity,[4]; [24],17 MFI
same,fluorescence intensity,[4]; [25],15.8 MFI
same,fluorescence intensity,[4]; [26],15.5 MFI
same,fluorescence intensity,[4]; [27],17 MFI
same,fluorescence intensity,[4]; [28],24 MFI
same,fluorescence intensity,[5]; [21],12 MFI
same,fluorescence intensity,[5]; [22],12 MFI
same,fluorescence intensity,[5]; [23],12.5 MFI
same,fluorescence intensity,[5]; [24],13.5 MFI
same,fluorescence intensity,[5]; [25],11.5 MFI
same,fluorescence intensity,[5]; [26],12.2 MFI
same,fluorescence intensity,[5]; [27],14 MFI
same,fluorescence intensity,[5]; [28],42.8 MFI
same,fluorescence intensity,[6]; [21],20.5 MFI
same,fluorescence intensity,[6]; [22],23 MFI
same,fluorescence intensity,[6]; [23],24.5 MFI
same,fluorescence intensity,[6]; [24],23 MFI
same,fluorescence intensity,[6]; [25],24 MFI
same,fluorescence intensity,[6]; [26],26 MFI
same,fluorescence intensity,[6]; [27],25.8 MFI
same,fluorescence intensity,[6]; [28],56.5 MFI
same,fluorescence intensity,[7]; [21],8.5 MFI
same,fluorescence intensity,[7]; [22],8 MFI
same,fluorescence intensity,[7]; [23],9 MFI
same,fluorescence intensity,[7]; [24],8 MFI
same,fluorescence intensity,[7]; [25],9 MFI
same,fluorescence intensity,[7]; [26],9.5 MFI
same,fluorescence intensity,[7]; [27],12.5 MFI
same,fluorescence intensity,[7]; [28],48 MFI
same,fluorescence intensity,[8]; [21],21.5 MFI
same,fluorescence intensity,[8]; [22],22.5 MFI
same,fluorescence intensity,[8]; [23],22.5 MFI
same,fluorescence intensity,[8]; [24],22.5 MFI
same,fluorescence intensity,[8]; [25],21.8 MFI
same,fluorescence intensity,[8]; [26],23.2 MFI
same,fluorescence intensity,[8]; [27],27 MFI
same,fluorescence intensity,[8]; [28],40.8 MFI
same,fluorescence intensity,[9]; [21],21 MFI
same,fluorescence intensity,[9]; [22],20 MFI
same,fluorescence intensity,[9]; [23],21.5 MFI
same,fluorescence intensity,[9]; [24],20 MFI
same,fluorescence intensity,[9]; [25],21.2 MFI
same,fluorescence intensity,[9]; [26],21.5 MFI
same,fluorescence intensity,[9]; [27],25 MFI
same,fluorescence intensity,[9]; [28],36.5 MFI
same,fluorescence intensity,[10]; [21],21 MFI
same,fluorescence intensity,[10]; [22],46 MFI
same,fluorescence intensity,[10]; [23],56 MFI
same,fluorescence intensity,[10]; [24],70.8 MFI
same,fluorescence intensity,[10]; [25],67.2 MFI
same,fluorescence intensity,[10]; [26],64 MFI
same,fluorescence intensity,[10]; [27],108 MFI
same,fluorescence intensity,[10]; [28],97.2 MFI
same,fluorescence intensity,[11]; [21],19.5 MFI
same,fluorescence intensity,[11]; [22],17.5 MFI
same,fluorescence intensity,[11]; [23],16.5 MFI
same,fluorescence intensity,[11]; [24],19 MFI
same,fluorescence intensity,[11]; [25],15.5 MFI
same,fluorescence intensity,[11]; [26],17.5 MFI
same,fluorescence intensity,[11]; [27],20.2 MFI
same,fluorescence intensity,[11]; [28],25 MFI
same,fluorescence intensity,[12]; [21],21.5 MFI
same,fluorescence intensity,[12]; [22],20 MFI
same,fluorescence intensity,[12]; [23],20.8 MFI
same,fluorescence intensity,[12]; [24],20 MFI
same,fluorescence intensity,[12]; [25],20 MFI
same,fluorescence intensity,[12]; [26],22.5 MFI
same,fluorescence intensity,[12]; [27],31 MFI
same,fluorescence intensity,[12]; [28],138 MFI
same,fluorescence intensity,[13]; [21],18.5 MFI
same,fluorescence intensity,[13]; [22],16 MFI
same,fluorescence intensity,[13]; [23],17.5 MFI
same,fluorescence intensity,[13]; [24],16.2 MFI
same,fluorescence intensity,[13]; [25],15.5 MFI
same,fluorescence intensity,[13]; [26],16.5 MFI
same,fluorescence intensity,[13]; [27],18.5 MFI
same,fluorescence intensity,[13]; [28],36.5 MFI
same,fluorescence intensity,[14]; [21],17.5 MFI
same,fluorescence intensity,[14]; [22],14.2 MFI
same,fluorescence intensity,[14]; [23],15.8 MFI
same,fluorescence intensity,[14]; [24],16.8 MFI
same,fluorescence intensity,[14]; [25],17 MFI
same,fluorescence intensity,[14]; [26],16 MFI
same,fluorescence intensity,[14]; [27],17.5 MFI
same,fluorescence intensity,[14]; [28],31.5 MFI
same,fluorescence intensity,[15]; [21],15.5 MFI
same,fluorescence intensity,[15]; [22],15 MFI
same,fluorescence intensity,[15]; [23],16.5 MFI
same,fluorescence intensity,[15]; [24],14.5 MFI
same,fluorescence intensity,[15]; [25],15 MFI
same,fluorescence intensity,[15]; [26],16.5 MFI
same,fluorescence intensity,[15]; [27],21.5 MFI
same,fluorescence intensity,[15]; [28],95.5 MFI
same,fluorescence intensity,[16]; [21],22.5 MFI
same,fluorescence intensity,[16]; [22],21.5 MFI
same,fluorescence intensity,[16]; [23],23.2 MFI
same,fluorescence intensity,[16]; [24],22 MFI
same,fluorescence intensity,[16]; [25],22.5 MFI
same,fluorescence intensity,[16]; [26],25.5 MFI
same,fluorescence intensity,[16]; [27],28.2 MFI
same,fluorescence intensity,[16]; [28],48.5 MFI
same,fluorescence intensity,[17]; [21],21 MFI
same,fluorescence intensity,[17]; [22],20.5 MFI
same,fluorescence intensity,[17]; [23],19.5 MFI
same,fluorescence intensity,[17]; [24],19 MFI
same,fluorescence intensity,[17]; [25],19.2 MFI
same,fluorescence intensity,[17]; [26],20.5 MFI
same,fluorescence intensity,[17]; [27],21.5 MFI
same,fluorescence intensity,[17]; [28],43.2 MFI
same,fluorescence intensity,[18]; [21],18 MFI
same,fluorescence intensity,[18]; [22],18.5 MFI
same,fluorescence intensity,[18]; [23],18.5 MFI
same,fluorescence intensity,[18]; [24],19 MFI
same,fluorescence intensity,[18]; [25],17.2 MFI
same,fluorescence intensity,[18]; [26],16 MFI
same,fluorescence intensity,[18]; [27],20 MFI
same,fluorescence intensity,[18]; [28],32 MFI
same,fluorescence intensity,[19]; [21],17 MFI
same,fluorescence intensity,[19]; [22],17 MFI
same,fluorescence intensity,[19]; [23],17 MFI
same,fluorescence intensity,[19]; [24],16.5 MFI
same,fluorescence intensity,[19]; [25],15.2 MFI
same,fluorescence intensity,[19]; [26],17 MFI
same,fluorescence intensity,[19]; [27],18.5 MFI
same,fluorescence intensity,[19]; [28],32 MFI
same,fluorescence intensity,[20]; [21],15.5 MFI
same,fluorescence intensity,[20]; [22],15 MFI
same,fluorescence intensity,[20]; [23],14.5 MFI
same,fluorescence intensity,[20]; [24],16 MFI
same,fluorescence intensity,[20]; [25],16 MFI
same,fluorescence intensity,[20]; [26],15.5 MFI
same,fluorescence intensity,[20]; [27],16.5 MFI
same,fluorescence intensity,[20]; [28],26.5 MFI

# Copied from above (5 entries):
binder,measurement,setting,value
B1,fluorescence intensity,[6]; [25],24 MFI
same,fluorescence intensity,[6]; [26],26 MFI
same,fluorescence intensity,[6]; [27],25.8 MFI
same,fluorescence intensity,[6]; [28],56.5 MFI
same,fluorescence intensity,[7]; [21],8.5 MFI

# Random excerpt: four records from the list.
binder,measurement,setting,value
B1,fluorescence intensity,[1]; [23],26 MFI
same,fluorescence intensity,[10]; [24],70.8 MFI
same,fluorescence intensity,[9]; [23],21.5 MFI
same,fluorescence intensity,[7]; [22],8 MFI

# Two entries from above in a different format:
binder	measurement	setting	value
B1	fluorescence intensity	[4]; [28]	24 MFI
same	fluorescence intensity	[17]; [24]	19 MFI
